Where two headings read alike, the source gives them in different places. For at least one compound, name, drawing or mass did not settle the structure.
Legend:
B7-H3 [1] = target: T1, B7-H3 (Homo sapiens, UniProt Q5ZPR3); test: Equilibrium binding affinity (KD) by SPR; set-up: purchased ThermoFisher B7-H3_NP_001019907; details: read-out: KD (nM), SPR
T1 sequence (Q5ZPR3 29-534): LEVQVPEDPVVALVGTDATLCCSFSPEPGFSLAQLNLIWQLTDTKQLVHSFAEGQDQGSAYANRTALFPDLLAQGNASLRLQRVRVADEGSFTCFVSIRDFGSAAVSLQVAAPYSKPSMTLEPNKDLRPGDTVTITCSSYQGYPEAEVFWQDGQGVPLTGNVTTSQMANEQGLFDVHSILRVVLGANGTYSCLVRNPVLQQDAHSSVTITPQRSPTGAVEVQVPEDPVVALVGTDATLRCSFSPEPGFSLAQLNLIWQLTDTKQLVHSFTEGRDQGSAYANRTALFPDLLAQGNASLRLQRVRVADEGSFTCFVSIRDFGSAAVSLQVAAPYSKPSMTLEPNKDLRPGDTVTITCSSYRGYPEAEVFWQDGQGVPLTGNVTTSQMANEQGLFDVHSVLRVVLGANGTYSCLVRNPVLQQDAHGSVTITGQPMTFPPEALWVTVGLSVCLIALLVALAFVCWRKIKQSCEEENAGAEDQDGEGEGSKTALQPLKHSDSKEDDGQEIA

B7-H3 [2] = target: T1, B7-H3; test: Binding inhibition constant (Ki), DELFIA competition on MCF7 cells expressing B7-H3; set-up: MCF7 cells that express B7-H3; endogenous in cells; host or cells: MCF7
[3] = read-out: Ki ± SD (nM), DELFIA, MCF7 cells expressing B7-H3

CC[C@H](C)[C@@H]1NC(=O)[C@H](Cc2ccccc2)NC(=O)[C@H](C)NC(=O)[C@H](CCCCN(C)C)NC(=O)[C@H]([C@@H](C)CC)NC(=O)[C@H](CCC(N)=O)NC(=O)[C@H](C)NC(=O)[C@H](Cc2ccc(O)cc2)NC(=O)[C@H]([C@@H](C)O)NC(=O)[C@H](CC(C)C)NC(=O)[C@@H]2CSSC[C@@H](C(=O)N[C@@H](CO)C(N)=O)NC(=O)[C@H](CC(C)C)NC(=O)[C@H](CCC(=O)O)NC(=O)[C@H](CCCCN)NC(=O)[C@H](C)NC(=O)[C@H](CCC(=O)O)NC(=O)[C@H](CO)NC(=O)[C@H](CC(C)C)NC(=O)[C@H]([C@@H](C)CC)NC(=O)[C@H](CCC(=O)O)NC(=O)[C@H](CO)NC(=O)[C@H](CO)NC(=O)[C@H](CCC(N)=O)NC(=O)[C@H](CSSC[C@H](NC(=O)CCOCCOCCOCCOCCNC(=O)CCCC[C@@H]3SC[C@@H]4NC(=O)N[C@@H]43)C(=O)N[C@@H](C)C(=O)N[C@@H](CCCC[N+](C)(C)C)C(=O)N[C@@H](CCC(=O)O)C(=O)N[C@@H](CCCCN)C(=O)N[C@@H]([C@@H](C)CC)C(=O)N[C@@H](C)C(=O)N[C@@H](C)C(=O)N[C@@H](CC(C)C)C(=O)N[C@@H](CO)C(=O)N[C@@H](CCC(=O)O)C(=O)N[C@@H]([C@@H](C)CC)C(=O)N[C@@H]([C@@H](C)CC)C(=O)N[C@@H](Cc3c[nH]c4ccccc34)C(=O)N[C@@H](CC(C)C)C(=O)N3CCC[C@H]3C(=O)N2)NC(=O)[C@@H]2CCCN2C(=O)[C@H](CC(=O)O)NC(=O)[C@H](CC(=O)O)NC(=O)[C@H](CC(N)=O)NC(=O)[C@H](CC(C)C)NC(=O)[C@H](C)NC(=O)[C@H](C)NC1=O [Compound C234]
Kd (B7-H3 [1]): 1.36 nM
Ki (B7-H3 [2]; read-out: Ki, on-cell competition assay (FIG. 15), single experiment of FIG. 15, MCF7 cells): ~1.36 nM

CC[C@H](C)[C@@H]1NC(=O)[C@H](CCCCN)NC(=O)[C@H](CCC(=O)O)NC(=O)[C@H](CCCC[N+](C)(C)C)NC(=O)[C@H](C)NC(=O)[C@@H](NC(=O)CCOCCOCCOCCOCCNC(=O)CCCC[C@@H]2SC[C@@H]3NC(=O)N[C@@H]32)CSSC[C@@H]2NC(=O)[C@@H]3CCCN3C(=O)[C@H](CC(=O)O)NC(=O)[C@H](CC(=O)O)NC(=O)[C@H](CC(N)=O)NC(=O)[C@H](CC(C)C)NC(=O)[C@H](C)NC(=O)[C@H](CCCCNC)NC(=O)[C@H]([C@@H](C)CC)NC(=O)[C@H](Cc3ccccc3)NC(=O)[C@H](C)NC(=O)[C@H](CCCCNC)NC(=O)[C@H]([C@@H](C)CC)NC(=O)[C@H](CCC(N)=O)NC(=O)[C@H](C)NC(=O)[C@H](Cc3ccc(O)cc3)NC(=O)[C@H]([C@@H](C)O)NC(=O)[C@H](CC(C)C)NC(=O)[C@H](CSSC[C@@H](C(=O)N[C@@H](CO)C(N)=O)NC(=O)[C@H](CC(C)C)NC(=O)[C@H](CCC(=O)O)NC(=O)[C@H](CCCCNC)NC(=O)[C@H](C)NC(=O)[C@H](CCC(=O)O)NC(=O)[C@H](CO)NC(=O)[C@H](CC(C)C)NC(=O)[C@H]([C@@H](C)CC)NC(=O)[C@H](CCC(=O)O)NC(=O)[C@H](CO)NC(=O)[C@H](CO)NC(=O)[C@H](CCC(N)=O)NC2=O)NC(=O)[C@@H]2CCCN2C(=O)[C@H](CC(C)C)NC(=O)[C@H](Cc2c[nH]c3ccccc23)NC(=O)[C@H]([C@@H](C)CC)NC(=O)[C@H]([C@@H](C)CC)NC(=O)[C@H](CCC(=O)O)NC(=O)[C@H](CO)NC(=O)[C@H](CC(C)C)NC(=O)[C@H](C)NC(=O)[C@H](C)NC1=O [Compound C306]
Ki (B7-H3 [2]; [3]): 1.24 ± 0.27 nM

CC[C@H](C)[C@@H]1NC(=O)[C@H](Cc2ccccc2)NC(=O)[C@H](C)NC(=O)[C@H](CCCCN(C)C)NC(=O)[C@H]([C@@H](C)CC)NC(=O)[C@H](CCC(N)=O)NC(=O)[C@H](C)NC(=O)[C@H](Cc2ccc(O)cc2)NC(=O)[C@H]([C@@H](C)O)NC(=O)[C@H](CC(C)C)NC(=O)[C@@H]2CSSC[C@@H](C(=O)N[C@@H](CO)C(N)=O)NC(=O)[C@H](CC(C)C)NC(=O)[C@H](CCC(=O)O)NC(=O)[C@H](CCCCNC)NC(=O)[C@H](C)NC(=O)[C@H](CCC(=O)O)NC(=O)[C@H](CO)NC(=O)[C@H](CC(C)C)NC(=O)[C@H]([C@@H](C)CC)NC(=O)[C@H](CCC(=O)O)NC(=O)[C@H](CO)NC(=O)[C@H](CO)NC(=O)[C@H](CCC(N)=O)NC(=O)[C@H](CSSC[C@H](NC(=O)CCOCCOCCOCCOCCNC(=O)CCCC[C@@H]3SC[C@@H]4NC(=O)N[C@@H]43)C(=O)N[C@@H](C)C(=O)N[C@@H](CCCC[N+](C)(C)C)C(=O)N[C@@H](CCC(=O)O)C(=O)N[C@@H](CCCCN)C(=O)N[C@@H]([C@@H](C)CC)C(=O)N[C@@H](C)C(=O)N[C@@H](C)C(=O)N[C@@H](CC(C)C)C(=O)N[C@@H](CO)C(=O)N[C@@H](CCC(=O)O)C(=O)N[C@@H]([C@@H](C)CC)C(=O)N[C@@H]([C@@H](C)CC)C(=O)N[C@@H](Cc3c[nH]c4ccccc34)C(=O)N[C@@H](CC(C)C)C(=O)N3CCC[C@H]3C(=O)N2)NC(=O)[C@@H]2CCCN2C(=O)[C@H](CC(=O)O)NC(=O)[C@H](CCCNC(N)=O)NC(=O)[C@H](CC(N)=O)NC(=O)[C@H](CC(C)C)NC(=O)[C@H](CCCCNC)NC(=O)[C@H](C)NC1=O [Compound C318]
Kd (B7-H3 [1]): 1.24 nM
Ki (B7-H3 [2]; [3]): 1.24 ± 0.34 nM
